From publication PMC3564997
Results are given in words; binding and its absence hold for the method and conditions named. Some binding calls cover weakened binding; strength is not graded here. Values belong to the binder of their own block, whether it stands above or below them.

Molecular target: T1, Trichoderma reesei LAE1 (Trichoderma reesei) (UniProt G0RNN3)
T1 sequence: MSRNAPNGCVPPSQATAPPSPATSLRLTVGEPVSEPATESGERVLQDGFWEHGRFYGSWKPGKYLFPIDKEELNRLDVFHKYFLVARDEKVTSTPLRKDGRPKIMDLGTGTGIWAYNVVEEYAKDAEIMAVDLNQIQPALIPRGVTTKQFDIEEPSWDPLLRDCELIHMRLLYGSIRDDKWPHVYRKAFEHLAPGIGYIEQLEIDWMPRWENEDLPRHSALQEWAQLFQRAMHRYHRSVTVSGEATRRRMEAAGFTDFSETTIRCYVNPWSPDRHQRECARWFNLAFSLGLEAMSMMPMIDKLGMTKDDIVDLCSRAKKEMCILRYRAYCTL
Test: two-hybrid; LAE1/LaeA as bait in pTLex3, VEL1/VeA as prey in pGAD424, S. cerevisiae reporter strain L40; six transformants of each combination tested for coloration on -UTL medium containing X-Gal

binding: binds
B1: Trichoderma reesei VEL1 (protein, UniProt G0RL42 1-573)
chain: MATPSSVASSSSRDQVQRIHRVTRENRHLWYQLTVLQQPERARACGSGMKANSDRRPVDPPPVVELRIIEGPSVEEGKDITFDYNANFFLYASLEQARTIAHGRVQNGATNNPPILTGVPASGMAYLDRPTEAGYFIFPDLSVRHEGYFRLSFSLYETTKEPKDFDLEPADSDLPPGVDWRMEIKTQPFNVFSAKKFPGLMESTSLSKTVADQGCRVRIRRDVRMRKRDGKGSGFDRRGEEEYSRRRTVTPAPAEDPNLRARSVSNASEHRGPYMPQEPPRRPSAAESYHAPPPLPPPPPSSYDAPPPAARPGHLGFGGDHNMPPQYGAPAARPYGHPQSAPIPPATPTGPYPTSSAAPSPYAKQDHHHQQQYSYNSRPPAPSASPAPPMKHAMYDNRPSEPYVPHSSPSVYASTERRPSYANYSAPAPYSTPASQPTYSTPASQPTYSTPASQPTYSAPPPAPYSAPAPPPPRPSMSQSSLAPLKIASLVSPLPPIEAQTEPLPPPPMLSTGGKRKHDHVFSQNHKPLYNGQRQLDAHYGHGYRGLTPEPDQGLYSRADGQIGVVTFNQYQV

binding: no binding
B2: Aspergillus nidulans VeA (protein, UniProt C8VTV4 1-573)
chain: MATLAAPPPPLGESGNSNSVSRITREGKKITYKLNIMQQPKRARACGQGSKSHTDRRPVDPPPVIELNIFESDPHDDSNKTDITFVYNANFFLFATLEPERPIATGKLMTNQGSPVLTGVPVAGVAYLDKPNRAGYFIFPDLSVRNEGSYRFSFHLFEQIKDPKDATEGTQPMPSPVPGKLSSPQEFLEFRLEVISNPFIVYSAKKFPGLTTSTPISRMIAEQGCRVRIRRDVRMRRRGDKRTEDYDYDNERGYNNRRPDQYAGSDAYANAPERPRSTSISTNMDPYSYPSRRPSAVEYGQPIAQPYQRPMASTPAPSSTPIPAPIPMPGPVALPPSTPSPASAHAPAPPSVPLAAPPPLHTPSYQSHLSFGATQTQYPAPQLSHIPQQTTTPTHPYSPRSSISHSRNQSISEYEPSMGYPGSQTRLSAERPSYGQPSQTTSLPPLRHSLEPSVNSRSKTPSNMITSLPPIQSLSELPSTTSQPSSAIGSSPANEPGPRLWETNSMLSKRTYEESFGHDDRPLYNGMRPDSESYPGGMQRRPSYERSSLLDGPDQMAYKRANGRMVSKPATMR
